The other results are listed elsewhere or left out. Shown are side measurements of this screen, not its main read-out; they come without a call. Compounds called inactive in the main read-out are mostly missing here. Potencies come from curve fits of mixed quality, noted in brackets.
Experiment: qHTS Assay for Modulators of Lamin A Splicing
Settings: HeLa LMNA splicing GFP/RFP minigene ratio, 48 h
Summary of the method: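 Read-out is the ratio of GFP to DsRed2 object intensity, acquired by 488 nm laser-scanning cytometry on HeLa lamin A-EGFP minigene reporter cells. Compound incubation 48 hrs at 37 °C in Opti-MEM with 2% FBS; DMSO 0.5% final.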

[1] = measured here: RFP viability control channel
[2] = measured here: GFP splicing reporter channel

Compound	AC50 [1]	AC50 [2]
c1ccc(-c2nc3nonc3c3nc4ccccc4n23)cc1	22.4 µM [rising, single point]	
Cc1sc2ncnc(OCC(=O)c3ccc(S(=O)(=O)N4CCCC4)cc3)c2c1C	15.8 µM [rising, partial curve]	15.8 µM [rising, partial curve]
O=C(NC(CO)C(O)c1ccc([N+](=O)[O-])cc1)C(Cl)Cl (stereo unspecified)		0.000891 µM [falling, full curve, poor fit]
O=C(/C=C/c1ccco1)OCc1nnc(-c2ccc(Cl)cc2)o1	28.2 µM [falling, partial curve]	
O=C(Cn1c(=O)nc(-c2ccccc2)c2cc(Cl)ccc21)NCCc1ccccc1	0.158 µM [falling, full curve, poor fit]	
CC(=O)N/N=C/c1cc2c(cc1[N+](=O)[O-])OCO2		0.0158 µM [falling, full curve]
Nc1ccc(C(=O)Nc2ccc3nc(-c4cccnc4)[nH]c3c2)cc1	0.0126 µM [falling, full curve]	
COc1ccccc1NC(=O)CN(c1ccc(C23CC4CC(CC(C4)C2)C3)cc1)S(C)(=O)=O	12.6 µM [rising, partial curve]	7.94 µM [rising, partial curve]
CCn1nc([N+](=O)[O-])c2c(-c3nc4ccccc4o3)c(N)n(CCCOC)c2c1=O	35.5 µM [falling, single point]	
CCOC(=O)c1cc(CC)sc1/N=C/C1=C(O)CC(C)(C)CC1=O	0.501 µM [rising, full curve, poor fit]	
Cc1cccc(C(=O)Nc2cccc(C(=O)N/N=C/c3ccncc3)c2)c1	35.5 µM [rising, single point]	
O=C(Nc1ccc(OCc2ccccc2)cc1)Nc1ccccc1C(=O)NCCCN1CCOCC1	11.2 µM [falling, partial curve, poor fit]	
CCOc1ccc(NC(=O)Cn2nnc(-c3ccccc3NC(=O)CC)n2)cc1	22.4 µM [rising, single point]	
O=C(c1ccccc1)N1CCCC(c2ccc(Cl)cc2)=N1	14.1 µM [rising, single point]	12.6 µM [rising, single point]
CC(=O)NCCNc1ncncc1-c1ccc(N(C)C)cc1	14.1 µM [falling, partial curve]	11.2 µM [falling, partial curve]
Cc1ccccc1-n1ncc2c(SCC(=O)NCc3cccs3)ncnc21	11.2 µM [falling, partial curve]	11.2 µM [falling, partial curve]

Reformatted with each value named: two of the compounds above.
O=C(NC(CO)C(O)c1ccc([N+](=O)[O-])cc1)C(Cl)Cl (stereo unspecified)
  AC50 [2]: 0.000891 µM [falling, full curve, poor fit]
O=C(Cn1c(=O)nc(-c2ccccc2)c2cc(Cl)ccc21)NCCc1ccccc1
  AC50 [1]: 0.158 µM [falling, full curve, poor fit]
